From article PMC5939225 come the findings set out here.

Protein sequences, listed by entry. Tags and fused reporters are not part of them. Lines headed by an entry give the natural chain unless they say otherwise; changes in a name come on top.
UniProt P46414: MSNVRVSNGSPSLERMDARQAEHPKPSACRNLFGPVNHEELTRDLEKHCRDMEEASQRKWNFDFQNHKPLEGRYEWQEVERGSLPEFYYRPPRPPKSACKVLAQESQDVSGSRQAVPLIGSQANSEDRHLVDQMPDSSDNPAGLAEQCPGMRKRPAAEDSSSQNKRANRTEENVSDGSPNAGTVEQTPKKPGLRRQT
UniProt Q9QUI0: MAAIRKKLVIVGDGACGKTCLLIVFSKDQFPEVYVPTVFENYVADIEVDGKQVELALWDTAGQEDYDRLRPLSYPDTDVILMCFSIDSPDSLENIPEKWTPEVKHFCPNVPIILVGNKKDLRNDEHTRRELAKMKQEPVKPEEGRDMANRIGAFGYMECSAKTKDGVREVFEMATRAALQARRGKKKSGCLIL

These are yes or no findings as the source states them, for the method shown. In cells and extracts the contact can be indirect. A result given as binding can be weak or reduced; the word gives no strength.

For this test, the target named is p27 (mouse (endogenous in primary hippocampal neurons)) (UniProt P46414). Description: co-IP; anti-p27 antibody cross-linked to Protein A/G agarose beads, incubated with extracts of primary hippocampal neurons at 4 °C overnight; blot with anti-RhoA; neurons WT or Cks1-/-, siCtrl or siCks1, with or without PiB or PINTIDE.

As to RhoA (from UniProt Q9QUI0), the binding result is recorded as “binds”.
